Results on four substances are retold here after paper PMC7941988.

Sequences of proteins named here, by UniProt entry; tags and fusion partners are left off. A change or cut given only in a name is not applied to a line headed by its entry.
UniProt O95342: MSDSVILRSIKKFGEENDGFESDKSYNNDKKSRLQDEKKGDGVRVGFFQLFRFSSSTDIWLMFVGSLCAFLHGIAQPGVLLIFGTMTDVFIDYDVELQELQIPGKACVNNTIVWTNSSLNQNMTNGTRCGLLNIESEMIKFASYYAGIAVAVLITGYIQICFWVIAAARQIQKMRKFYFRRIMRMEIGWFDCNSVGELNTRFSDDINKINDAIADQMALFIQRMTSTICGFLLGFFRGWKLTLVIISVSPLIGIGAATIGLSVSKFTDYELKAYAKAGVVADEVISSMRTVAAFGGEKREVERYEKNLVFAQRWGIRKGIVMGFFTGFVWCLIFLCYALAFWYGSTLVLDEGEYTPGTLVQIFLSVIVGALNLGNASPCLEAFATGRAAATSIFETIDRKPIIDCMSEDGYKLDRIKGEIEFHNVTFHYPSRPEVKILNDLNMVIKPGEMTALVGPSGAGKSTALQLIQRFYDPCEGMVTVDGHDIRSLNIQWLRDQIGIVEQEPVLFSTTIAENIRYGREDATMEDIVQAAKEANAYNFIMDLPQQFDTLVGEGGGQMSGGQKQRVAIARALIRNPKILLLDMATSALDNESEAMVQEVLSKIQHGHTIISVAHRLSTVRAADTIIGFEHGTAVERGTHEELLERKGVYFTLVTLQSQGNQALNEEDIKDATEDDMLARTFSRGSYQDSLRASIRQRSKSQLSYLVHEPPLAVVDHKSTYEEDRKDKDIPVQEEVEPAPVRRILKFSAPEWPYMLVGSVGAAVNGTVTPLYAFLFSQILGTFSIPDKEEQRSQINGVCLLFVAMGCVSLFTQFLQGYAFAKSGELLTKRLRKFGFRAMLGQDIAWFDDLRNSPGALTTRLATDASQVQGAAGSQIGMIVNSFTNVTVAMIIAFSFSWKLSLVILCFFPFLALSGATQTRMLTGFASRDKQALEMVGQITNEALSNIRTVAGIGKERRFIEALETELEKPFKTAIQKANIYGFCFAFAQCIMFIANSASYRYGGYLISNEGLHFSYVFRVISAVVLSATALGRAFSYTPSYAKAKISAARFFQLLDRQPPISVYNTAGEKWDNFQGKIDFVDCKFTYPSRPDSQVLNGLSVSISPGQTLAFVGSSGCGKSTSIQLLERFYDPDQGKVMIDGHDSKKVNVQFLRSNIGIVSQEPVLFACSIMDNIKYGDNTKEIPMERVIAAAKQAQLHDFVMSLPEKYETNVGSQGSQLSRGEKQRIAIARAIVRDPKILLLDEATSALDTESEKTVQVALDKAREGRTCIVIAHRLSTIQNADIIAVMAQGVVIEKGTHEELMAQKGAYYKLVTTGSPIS
UniProt Q9NZZ3: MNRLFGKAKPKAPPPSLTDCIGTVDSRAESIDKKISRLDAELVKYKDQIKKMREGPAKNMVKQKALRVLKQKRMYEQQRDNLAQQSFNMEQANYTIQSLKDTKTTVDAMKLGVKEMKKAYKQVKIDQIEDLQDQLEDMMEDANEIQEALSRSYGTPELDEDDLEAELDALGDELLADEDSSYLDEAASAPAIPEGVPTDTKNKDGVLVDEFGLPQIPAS

Results are given in words; binding and its absence hold for the method and conditions named. Binding seen in cells or lysates may run through a third protein. Some results given as binding are weak or reduced against the parent protein; the word gives no strength.

For one assay, the target named is FLAG-BSEP-R487H (human) (UniProt O95342). The assay is described as follows: co-IP; Hep G2 cells co-expressing CHMP5-3HA and FLAG-BSEP wild type or mutants, fractionated; immunoprecipitation with anti-FLAG antibodies from the total membrane (tM) fraction; blots for CHMP5-3HA, LIP5 and VPS4.
The target in the next assay is FLAG-BSEP-N490D (human) (UniProt O95342). The assay is described as above.
In assay [1] the target is FLAG-BSEP wild type (human) (UniProt O95342). Described as above.
The target in assay [2] is endogenous CHMP5 of human hepatoma cells (human (endogenous in Hep G2, Huh-7, Mahlavu)) (UniProt Q9NZZ3). The assay is described as follows: co-IP; endogenous proteins; immunoprecipitation of CHMP5 from total lysates of Hep G2, Huh-7 and Mahlavu cells, normal mouse IgG as control; blot for BSEP.
The next assay addresses EGFP-BSEP (human) (UniProt O95342). The assay is described as follows: co-IP; Hep G2 cells co-expressing EGFP-BSEP and mCherry-CHMP5 or mCherry, fractionated; immunoprecipitation with anti-EGFP antibodies from the total membrane-protein (tM) fraction; blot for CHMP5.

Take CHMP5-3HA (from UniProt Q9NZZ3-1 1-219): the binding result (with FLAG-BSEP-R487H (human); with FLAG-BSEP-N490D (human); in assay [1]) was “binds” throughout.
On to “endogenous BSEP of human hepatoma cells (from UniProt O95342 1-1321)”, for which, in assay [2], the binding result is “binds”.
Take “endogenous CHMP5 of human hepatoma cells (from UniProt Q9NZZ3 1-219)”: in the assay with EGFP-BSEP (human), the binding result is listed as “binds”.
Same read-out and setting: the same measure for “mCherry-CHMP5 (from UniProt Q9NZZ3-1 1-219)”: “binds”.
